The test system of the experiment is SARS-CoV-2 (USA-WA1/2020). The experiment can be described thus: microbe, parasite or virus in culture. The following applies: Severe acute respiratory syndrome coronavirus 2, Vero, 24 h, read-out: SARS-CoV-2 EC50. Format: cell-based.

Experimental findings from PMC10541190 (The Journal of Clinical Investigation, 2023) are described below.

For orientation: EC50 means the concentration needed to bring the measured effect to its halfway point. Take `CN(C)C(=O)C(CCN1CCC(O)(c2ccc(Cl)cc2)CC1)(c1ccccc1)c1ccccc1` [Loperamide]: the EC50 is 16.1 µM.
